Source: paper PMC10248533, “Structures of Get3d reveal a distinct architecture associated with the emergence of photosynthesis” (The Journal of Biological Chemistry, 2023)

What was measured:
Assay in all cases: pull-down; His6-tagged Get3d co-expressed with MBP-Sbh1 in E. coli; lysate passed over nickel resin, eluted with imidazole; Coomassie SDS-PAGE and Western blot (anti-His5, anti-MBP)
[1] = target: His6-TEV-tagged NosGet3dΔαCD (pET33b, TA protein capture assay) (Nostoc sp. PCC 7120)
[2] = target: His6-TEV-tagged NosGet3d (pET33b, TA protein capture assay) (Nostoc sp. PCC 7120)
[3] = target: His6-TEV-tagged AtGet3dΔ1–57ΔαCD (pET33b, TA protein capture assay) (Arabidopsis thaliana)

Measured: binding

B1: maltose-binding protein (MBP)–tagged yeast TA protein Sbh1 (protein, UniProt P52870 1-82)
chain: MSSPTPPGGQRTLQKRKQGSSQKVAASAPKKNTNSNNSILKIYSDEATGLRVDPLVVLFLAVGFIFSVVALHVISKVAGKLF
binds: [1] | [2] | [3]

No constants are given. Whether binding was seen depends on the method and setting. Binding seen in cells or lysates may run through a third protein. Binding can be weak; no strength is given. Where a sequence is shown, tags or fusion partners need not be part of it.
